From publication PMC8184817, “Transmission of light signals from the light-oxygen-voltage core via the hydrophobic region of the β-sheet surface in aureochrome-1” (Scientific Reports, 2021)
Where a chain is given by its changes, count along the chain named. Numbers in names are those of the source. No constants are given. Whether binding was seen depends on the method and setting.

Key:
[1] = target: Photozipper (PZ), N-terminally truncated aureochrome-1 of Vaucheria frigida, wild type (Vaucheria frigida) (UniProt A8QW55); test: SEC; dark (D) state: 8 or 50 µM protein incubated 20 min at 25 °C in the dark; Superdex 75 column, 400 mM NaCl, 20 mM Tris-HCl pH 7.0, 25 ± 1 °C, 0.5 mL/min; monomer to dimer; both purified
[2] = target: Photozipper (PZ) N218A mutant (Vaucheria frigida) (UniProt A8QW55); test: dynamic light scattering (DLS); dark (D) state: 30-60 µM protein, 25 °C, hydrodynamic radius extrapolated to 0 µM protein; monomer to dimer; both purified
[3] = target: Photozipper (PZ) N218A mutant (Vaucheria frigida) (UniProt A8QW55); test: SEC; dark (D) state: 8 or 50 µM protein incubated 20 min at 25 °C in the dark; Superdex 75 column, 400 mM NaCl, 20 mM Tris-HCl pH 7.0, 25 ± 1 °C, 0.5 mL/min; monomer to dimer; both purified
[4] = target: Photozipper (PZ) Q216A mutant (Vaucheria frigida) (UniProt A8QW55); test: dynamic light scattering (DLS); dark (D) state: 30-60 µM protein, 25 °C, hydrodynamic radius extrapolated to 0 µM protein; monomer to dimer; both purified
[5] = target: Photozipper (PZ) Q217A mutant (Vaucheria frigida) (UniProt A8QW55); test: as above
[6] = target: Photozipper (PZ) F299V mutant (Vaucheria frigida) (UniProt A8QW55); test: as above
[7] = target: Photozipper (PZ) L303A mutant (Vaucheria frigida) (UniProt A8QW55); test: as above

B1: Photozipper (PZ), N-terminally truncated aureochrome-1 of Vaucheria frigida, wild type (domain or fragment, UniProt A8QW55 113-348, looked up)
chain: GSISSELTEAQKVERRERNREHAKRSRVRKKFLLESLQQSVNELNHENNSLKESIREHLGPRGDSLIAQSSPEADTLLTDNPSKANRILEDPDYSLVKALQMAQQNFVITDASLPDNPIVYASRGFLTLTGYSLDQILGRNCRFLQGPETDPRAVDKIRNAITKGVDTSVCLLNYRQDGTTFWNLFFVAGLRDSKGNIVNYVGVQSKVSEDYAKLLVNEQNIEYKGVRTSNMLRRK
notes: aureochrome-1 of Vaucheria frigida (VfAUREO1), G113-K348 with C162S and C182S, encoded by the synthetic gene opZL; holds the bZIP and LOV domains; in the light (L) state FMN forms a covalent adduct with a conserved cysteine; also called wtPZ; source: recombinant protein
[1]
  binding: no binding (condition: in the dark (D state); 8 or 50 µM)

B2: Photozipper (PZ) N218A mutant (domain or fragment, Vaucheria frigida, UniProt A8QW55 113-348, looked up)
chain: B1 chain with N106A
notes: aureochrome-1 of Vaucheria frigida (VfAUREO1), G113-K348 with C162S and C182S (opZL gene), plus N218A; also called hinge mutant
[2]
  binding: no binding (condition: in the dark (D state); 30–60 µM)
[3]
  binding: no binding (condition: in the dark (D state); 8 or 50 µM)

B3: Photozipper (PZ) Q216A mutant (domain or fragment, Vaucheria frigida, UniProt A8QW55 113-348, looked up)
chain: B1 chain with Q104A
notes: aureochrome-1 of Vaucheria frigida (VfAUREO1), G113-K348 with C162S and C182S (opZL gene), plus Q216A; also called hinge mutant
[4]
  binding: no binding (condition: in the dark (D state); 30–60 µM)

B4: Photozipper (PZ) Q217A mutant (domain or fragment, Vaucheria frigida, UniProt A8QW55 113-348, looked up)
chain: B1 chain with Q105A
notes: aureochrome-1 of Vaucheria frigida (VfAUREO1), G113-K348 with C162S and C182S (opZL gene), plus Q217A; also called hinge mutant
[5]
  binding: no binding (condition: in the dark (D state); 30–60 µM)

B5: Photozipper (PZ) F299V mutant (domain or fragment, Vaucheria frigida, UniProt A8QW55 113-348, looked up)
chain: B1 chain with F187V
notes: aureochrome-1 of Vaucheria frigida (VfAUREO1), G113-K348 with C162S and C182S (opZL gene), plus F299V; also called β-sheet mutant
[6]
  binding: no binding (condition: in the dark (D state); 30–60 µM)

B6: Photozipper (PZ) L303A mutant (domain or fragment, Vaucheria frigida, UniProt A8QW55 113-348, looked up)
chain: B1 chain with L191A
notes: aureochrome-1 of Vaucheria frigida (VfAUREO1), G113-K348 with C162S and C182S (opZL gene), plus L303A; also called β-sheet mutant
[7]
  binding: no binding (condition: in the dark (D state); 30–60 µM)
